The values are deposited in ChEMBL (CHEMBL3988442, “University of Dundee, Small-Polar-MMV Screening Library” (2021)).

Mtb cholesterol medium: 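Phenotypic screen: M. tuberculosis growth, cholesterol and DPPC medium, 4 days; the read-out is not stated. Tested at 50 µM. Higher reads as more growth inhibition (inferred: compounds with an IC50 in retests scored well above the rest). Of about 69,000 compounds tested this way, about 370 (0.54%) reached 50% or more in at least one test.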
Mtb glucose medium: 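Growth of Mycobacterium tuberculosis over 3 days (7H9 medium with glucose and tyloxapol); the read-out is not stated. Compounds at 50 µM. Higher reads as more growth inhibition (inferred: compounds with an IC50 in retests scored well above the rest). About 69,000 compounds were tested under these conditions; 1.1% (about 760) showed 50% or more at least once.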

The filed quantity is “Percent Effect” (%).
How 0% and 100% were set is not recorded. Most values in the screen are low, and negative values occur.
This is an unselected part of the compounds tested.
Two or more numbers in one place are separate tests of the same structure; such repeats can differ widely.

O=S(=O)(NCc1cccnc1OC1CCCC1)N1CCOCC1 read Mtb cholesterol medium: -3.735%; Mtb glucose medium: 12.04%.
CC(C)(CN1CCC2(CCCNC2)C1)N1CCOCC1 (centres undefined) read Mtb cholesterol medium: -9.967%; Mtb glucose medium: -53.76%.
CCn1ccnc1CN1CCCN(C(=O)Cc2csc(C)n2)CC1 read Mtb cholesterol medium: -22.15%; Mtb glucose medium: -27.84%.
Cc1ccc(CC(=O)N2CCCC(c3nc(C)cs3)C2)cn1 (centres undefined) read Mtb cholesterol medium: -2.107%; Mtb glucose medium: 18.29%.
CCOc1ccc2oc(-c3cnn(C)c3C)c(O)c(=O)c2c1 read Mtb cholesterol medium: 9.753%; Mtb glucose medium: 1.911%.
CCCn1nc2c(cc1=O)CN(Cc1cc(C)on1)CC2 read Mtb cholesterol medium: 2.638% & 15.59%; Mtb glucose medium: -22.22%.
Cn1cc(C(=O)NC2CCN(C(=O)NCCSC(F)(F)F)CC2)cn1 read Mtb cholesterol medium: 15.15%; Mtb glucose medium: 21.93%.
CCCn1ccnc1CN1CCCC1c1cccc(-n2ccnc2)n1 (centres undefined) read Mtb cholesterol medium: 0.8169%; Mtb glucose medium: 18.86%.
CCN1CCC(NC(=O)CN2CCCC(NS(C)(=O)=O)C2)CC1 (centres undefined) read Mtb cholesterol medium: 7.712%; Mtb glucose medium: 0.5717%.
CC(C)(CNC(=O)CCCOc1cccc(F)c1)C(N)=O read Mtb cholesterol medium: 2.3%; Mtb glucose medium: 21.09%.
CC(C)(NCc1cccc(O)c1)c1ccc2c(c1)OCO2 read Mtb cholesterol medium: 5.518%; Mtb glucose medium: 8.416% & -2.654%.
[H][C@@]12CS(=O)(=O)C[C@]1([H])N(C(=O)CCC(F)(F)F)CCN2Cc1[nH]cnc1C read Mtb cholesterol medium: -18.08%; Mtb glucose medium: 8.086%.
CCOCC1CN(C(=O)c2cscn2)Cc2nnn(CC3CC3)c21 (centres undefined) read Mtb cholesterol medium: -27.91%; Mtb glucose medium: -4.991%.
CC(C)CCN1CCC2(CC1)NCc1ccccc1NC2=O read Mtb cholesterol medium: -14.04%; Mtb glucose medium: -7.151%.
CCCC1c2ccccc2CCN1CCS(C)(=O)=O (centres undefined) read Mtb cholesterol medium: 16.23%; Mtb glucose medium: 31.39%.
CN(C)C(=O)N1CCC2(CC1)CN(CC1CC1)CC21CCNC1=O.O=C(O)C(F)(F)F (centres undefined) read Mtb cholesterol medium: 5.774%; Mtb glucose medium: 12.62%.
CN(Cc1ccc(F)cc1)CC1(O)CCN(C(=O)c2cccs2)C1 (centres undefined) read Mtb cholesterol medium: -21.75%; Mtb glucose medium: -18.98%.
Cc1ccc(S(=O)(=O)N2CCC(Oc3ccccn3)CC2)c(C)c1 read Mtb cholesterol medium: 15.81%; Mtb glucose medium: 48.1% & 6.569%.
Cc1cc(NC(=O)Cn2cnc(-c3cccs3)cc2=O)no1 read Mtb cholesterol medium: 2.8%; Mtb glucose medium: 22.35% & 5.546%.
N#CCCN(Cc1ccccn1)C(=O)Nc1cccnc1 read Mtb cholesterol medium: 5.951%; Mtb glucose medium: -2.578% & -0.3187%.
CC(C)(C)n1cc(C(=O)N2CCN(Cc3ccsc3)CC2)cn1 read Mtb cholesterol medium: -2.687%; Mtb glucose medium: 6.135%.
NC(=O)c1ccccc1NC(=O)CCN1CCN(c2ccccc2)CC1 read Mtb cholesterol medium: -6.842%; Mtb glucose medium: 11.37%.
CCOc1ccc(Cl)c(C(=O)N2CCN(CC(O)CC)CC2)n1 (centres undefined) read Mtb cholesterol medium: -8.369%; Mtb glucose medium: 22.36%.
c1ccc(-c2nc3c(c(NCc4n[nH]c5c4CCC5)n2)CCNC3)cc1 read Mtb cholesterol medium: 57.51%; Mtb glucose medium: 82.47%.
CCN1CCc2c(sc3c2C(=O)NC(/C=C\c2ccccc2)N3)C1 (centres undefined) read Mtb cholesterol medium: -40.86%; Mtb glucose medium: -74.94%.
N#CCCN(CC1CCOC1)S(=O)(=O)c1c(F)cccc1Cl (centres undefined) read Mtb cholesterol medium: -6.558%; Mtb glucose medium: 9.355% & -5.904%.
O=C(O)C(F)(F)F.O=C(O)C(F)(F)F.[H][C@@]12COC[C@]1(COc1ccccn1)CN(c1cc(OC)ncn1)C2 read Mtb cholesterol medium: 8.566%; Mtb glucose medium: 7.738%.
c1ccc(-c2nc(CN3CCCC3Cn3cncn3)co2)cc1 (centres undefined) read Mtb cholesterol medium: -3.4%; Mtb glucose medium: 8.648%.
CCN1CCC2(CN(C(=O)N(C)C)CC23CCN(CC2CC2)CC3)C1=O.O=C(O)C(F)(F)F (centres undefined) read Mtb cholesterol medium: -31.48%; Mtb glucose medium: -37.39%.
CC(C)N1CCOCC2(CN(Cc3ccco3)CCO2)C1 (centres undefined) read Mtb cholesterol medium: -26.61%; Mtb glucose medium: -17.91%.
CC(NC(=O)NCCCN(C)S(C)(=O)=O)c1ccc(Cl)cc1 (centres undefined) read Mtb cholesterol medium: -17.34%; Mtb glucose medium: 11.46%.
O=C(Cc1ccc2c(c1)OCCO2)N1CCCC(n2cncn2)C1 (centres undefined) read Mtb cholesterol medium: 22.56%; Mtb glucose medium: 20.83%.
CC(=O)N1CCN(C(=O)Nc2cnc3c(cnn3C(C)C)c2)CC1 read Mtb cholesterol medium: -15%; Mtb glucose medium: -9.005% & -24.8%.
O=C(c1ccc(Cn2cccc2)cc1)N1CCN(CCO)CC1 read Mtb cholesterol medium: -14.16%; Mtb glucose medium: -27.25%.
OC1(CNc2ccc(Br)cn2)CCOCC1 read Mtb cholesterol medium: -12.12%; Mtb glucose medium: -21.31%.
OCC(O)CSCc1cc(Cl)ccc1Cl (centres undefined) read Mtb cholesterol medium: 18.24%; Mtb glucose medium: 32.63%.
CNC(=O)Cn1ccc2ccc(NC(=O)NC(C)C(C)C)cc21 (centres undefined) read Mtb cholesterol medium: -23.84%; Mtb glucose medium: -6.093% & 0.8342%.